± gives the standard deviation of the averaged measurements. Small differences around the control level are noise.
Assays:
Assay in all cases: level (log10 ratio to DMSO vehicle control); higher = higher biomarker level / cell amount than vehicle control
[1] = compound: C=C(C)C(=O)OCCC(F)(F)C(F)(F)C(F)(F)C(F)(F)C(F)(F)C(F)(F)C(F)(F)C(F)(F)F [8:2 Fluorotelomer methacrylate]; conditions: in DMSO
Experimental: (§1)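 BioMAP Diversity Plus panel of 12 human primary cell co-culture systems (3C, 4H, LPS, SAg, BT, BF4T, BE3C, CASM3C, HDF3CGF, KF3CT, MyoF, Mphg). Compounds were added 1 h before stimulation and left for 24 h (MyoF 48 h; BT 72 h for soluble read-outs or 6 d for IgG). Biomarkers were read by ELISA, cytotoxicity by SRB, PBMC viability and proliferation by Alamar Blue. Each well value was divided by the mean of 8 DMSO control wells on the same plate and log10 transformed; duplicate blinded samples were tested at 4 concentrations.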

[2] = compound: O=S(=O)(O)C(F)(F)C(F)(F)OC(F)(F)C(F)(F)F [Perfluoro(2-ethoxyethane)sulfonic acid]; conditions: 2200 nM; in DMSO
Experimental: as §1

Nonafluoropentanamide = compound: NC(=O)C(F)(F)C(F)(F)C(F)(F)C(F)(F)F [Nonafluoropentanamide]; conditions: 2200 nM; in DMSO
Experimental: as §1

[3] = compound: C=C(C)C(=O)OCCC(F)(F)C(F)(F)C(F)(F)C(F)(F)C(F)(C(F)(F)F)C(F)(F)F [(Perfluoro-5-methylhexyl)ethyl 2-methylprop-2-enoate]; conditions: in DMSO
Experimental: as §1

[4] = compound: O=S(=O)(O)CCC(F)(F)C(F)(F)C(F)(F)C(F)(F)C(F)(F)C(F)(F)F [6:2 Fluorotelomer sulfonic acid]; conditions: in DMSO
Experimental: as §1

[5] = compound: O=C(O)CCC(F)(F)C(F)(F)C(F)(F)C(F)(F)C(F)(F)F [2H,2H,3H,3H-Perfluorooctanoic acid]; conditions: 2200 nM; in DMSO
Experimental: as §1

Octafluoroadipamide = compound: NC(=O)C(F)(F)C(F)(F)C(F)(F)C(F)(F)C(N)=O [Octafluoroadipamide]; conditions: 2200 nM; in DMSO
Experimental: as §1

Perfluoropinacol = compound: OC(C(F)(F)F)(C(F)(F)F)C(O)(C(F)(F)F)C(F)(F)F [Perfluoropinacol]; conditions: in DMSO
Experimental: as §1

Tetrafluorosuccinic acid = compound: O=C(O)C(F)(F)C(F)(F)C(=O)O [Tetrafluorosuccinic acid]; conditions: 2200 nM; in DMSO
Experimental: as §1

[6] = compound: O=C(O)C(F)(F)C(F)(F)C(F)(F)C(F)(F)C(F)(F)C(F)(F)C(F)(F)C(F)(F)Cl [9-Chloro-perfluorononanoic acid]; conditions: in DMSO
Experimental: as §1

[7] = compound: COC(=O)CCC(F)(F)C(F)(F)C(F)(F)C(F)(F)F [Methyl 2H,2H,3H,3H-perfluoroheptanoate]; conditions: 2200 nM; in DMSO
Experimental: as §1

[8] = compound: NS(=O)(=O)C(F)(F)C(F)(F)C(F)(F)C(F)(F)C(F)(F)C(F)(F)F [Perfluorohexanesulfonamide]; conditions: 2200 nM; in DMSO
Experimental: as §1

[9] = compound: OCCC(F)(F)C(F)(F)C(F)(F)C(F)(F)F [4:2 Fluorotelomer alcohol]; conditions: 2200 nM; in DMSO
Experimental: as §1

[10] = compound: FC(F)(F)C(F)(F)C(F)(F)C(F)(F)C(F)(F)CCI [1-Iodo-1H,1H,2H,2H-perfluoroheptane]; conditions: 2200 nM; in DMSO
Experimental: as §1

Row | Test System | level (log10) ([1]; 740 nM) | level (log10) ([1]; 2200 nM) | level (log10) [2] | level (log10) (Nonafluoropentanamide) | level (log10) ([3]; 740 nM) | level (log10) ([3]; 2200 nM) | level (log10) ([3]; 6700 nM) | level (log10) ([3]; 20000 nM) | level (log10) ([4]; 2200 nM) | level (log10) ([4]; 6700 nM) | level (log10) ([4]; 20000 nM) | level (log10) ([4]; 60000 nM) | level (log10) [5] | level (log10) (Octafluoroadipamide) | level (log10) (Perfluoropinacol; 2200 nM) | level (log10) (Perfluoropinacol; 6700 nM) | level (log10) (Perfluoropinacol; 20000 nM) | level (log10) (Tetrafluorosuccinic acid) | level (log10) ([6]; 2200 nM) | level (log10) ([6]; 6700 nM) | level (log10) ([6]; 20000 nM) | level (log10) [7] | level (log10) [8] | level (log10) [9] | level (log10) [10]
1 | 3C:CD54/ICAM-1 | -0.0085 ± 0.0021 | 0.001 ± 0.0028 | -0.006 ± 0.011 | 0.0025 ± 0.0064 | 0.002 ± 0.0042 | -0.0125 ± 0.013 | -0.009 ± 0.0014 | -0.01 ± 0.0071 | -0.0025 ± 0.015 | -0.012 ± 0.021 | -0.006 ± 0.021 | -0.004 ± 0.011 | -0.004 ± 0.0057 | -0.0005 ± 0.0035 | 0.0045 ± 0.011 | 0.0055 ± 0.0021 | -0.0005 ± 0.021 | -0.008 ± 0.0099 | 0.001 ± 0.025 | -0.0075 ± 0.0092 | -0.0085 ± 0.019 | 0.0095 ± 0.005 | 0.0175 ± 0.019 | -0.0015 ± 0.029 | 0.022 ± 0.025
2 | MyoF:PAI-I | 0.006 ± 0.018 | 0.0065 ± 0.011 | 0.003 ± 0.0071 | -0.0015 ± 0.012 | 0 ± 0.0099 | -0.011 ± 0.0057 | -0.0025 ± 0.011 | -0.019 ± 0.0085 | 0.0035 ± 0.0064 | -0.0035 ± 0.0021 | -0.011 ± 0.0014 | -0.0035 ± 0.015 | 0.0015 ± 0.0092 | -0.003 ± 0.027 | -0.0005 ± 0.0021 | -0.0215 ± 0.012 | -0.0025 ± 0.00071 | 0.021 ± 0.0071 | -0.001 ± 0.0085 | -0.0065 ± 0.0078 | -0.0185 ± 0.011 | 0.005 ± 0.0085 | -0.0045 ± 0.0078 | 0.0065 ± 0.012 | -0.01 ± 0.0071
3 | SAg:CD62E/E-Selectin | 0.0055 ± 0.025 | -0.012 ± 0.016 | -0.001 ± 0.033 | 0.0165 ± 0.016 | -0.0525 ± 0.073 | -0.008 ± 0.044 | 0.0215 ± 0.011 | 0.007 ± 0.014 | -0.0015 ± 0.023 | -0.008 ± 0.0057 | -0.007 ± 0.013 | 0.038 ± 0.013 | 0.014 ± 0.018 | 0.0125 ± 0.049 | 0.0145 ± 0.018 | 0.008 ± 0.0071 | -0.15 ± 0.0021 | -0.018 ± 0.013 | -0.007 ± 0.011 | -0.017 ± 0.0042 | 0.017 ± 0.014 | -0.0095 ± 0.0064 | 0.017 ± 0.061 | 0.0035 ± 0.005 | 0.0285 ± 0.012
4 | BF4T:uPA | 0.0105 ± 0.0092 | -0.009 ± 0.0042 | 0.0095 ± 0.023 | -0.013 ± 0.0042 | -0.009 ± 0.0028 | -0.0425 ± 0.032 | -0.0295 ± 0.0064 | -0.063 ± 0.0014 | 0.009 ± 0.028 | 0.0085 ± 0.019 | -0.013 ± 0.0028 | -0.001 ± 0.018 | -0.0015 ± 0.026 | -0.0275 ± 0.0078 | -0.0125 ± 0.0078 | -0.0305 ± 0.019 | -0.0365 ± 0.0064 | 0.003 | -0.006 ± 0.011 | -0.0045 ± 0.012 | -0.01 ± 0.0071 | -0.012 ± 0.031 | -0.0065 ± 0.0092 | -0.022 ± 0.024 | 0.008 ± 0.013
5 | lMphg:CXCL8/IL-8 | 0.0135 ± 0.067 | -0.0355 ± 0.046 | 0.007 ± 0.024 | -0.0185 ± 0.0078 | 0.002 ± 0.069 | -0.0045 ± 0.022 | -0.0035 ± 0.011 | 0.006 ± 0.0028 | -0.0025 ± 0.037 | -0.0115 ± 0.005 | 0.022 ± 0.014 | 0.0725 ± 0.0092 | 0.002 ± 0.051 | 0.029 ± 0.065 | 0.052 ± 0.034 | 0.0875 ± 0.061 | 0.161 ± 0.066 | 0.013 ± 0.062 | 0.017 ± 0.016 | -0.0145 ± 0.0078 | 0.0115 ± 0.025 | 0.0115 ± 0.005 | 0.0405 ± 0.019 | 0.018 ± 0.017 | 0.011 ± 0.023
6 | LPS:CCL2/MCP-1 | 0.023 ± 0.017 | 0.0065 ± 0.005 | 0.013 ± 0.0085 | 0.004 ± 0.0099 | 0.022 ± 0.037 | 0.0105 ± 0.0064 | 0.009 ± 0.021 | 0.0115 ± 0.028 | 0.015 | 0.0095 ± 0.0021 | 0.037 ± 0.018 | 0.056 ± 0.037 | 0.013 ± 0.0099 | 0.0155 ± 0.035 | 0.006 ± 0.021 | 0.0205 ± 0.00071 | -0.103 ± 0.0078 | -0.0105 ± 0.0064 | 0.011 ± 0.035 | 0.005 ± 0.038 | 0.006 ± 0.0028 | 0.0085 ± 0.029 | 0.003 ± 0.038 | -0.024 ± 0.064 | 0.001 ± 0.011
7 | HDF3CGF:Collagen I | -0.0035 ± 0.0021 | -0.0245 ± 0.044 | -0.0075 ± 0.069 | 0.035 ± 0.065 | 0.043 ± 0.0071 | -0.003 ± 0.085 | 0.0115 ± 0.067 | 0.034 ± 0.092 | 0.013 ± 0.013 | -0.031 ± 0.095 | -0.007 ± 0.086 | 0.056 ± 0.11 | 0.045 ± 0.013 | -0.0055 ± 0.03 | 0.022 ± 0.1 | -0.0205 ± 0.0092 | -0.0685 ± 0.015 | 0.0015 ± 0.063 | 0.002 ± 0.089 | -0.0595 ± 0.005 | -0.151 ± 0.0042 | 0.0585 ± 0.029 | 0.0155 ± 0.04 | 0.0725 ± 0.042 | 0.0435 ± 0.069
8 | CASM3C:CD87/uPAR | 0.0235 ± 0.005 | 0.0245 ± 0.037 | 0.006 ± 0.0085 | -0.015 ± 0.044 | -0.026 ± 0.023 | -0.046 ± 0.018 | -0.0305 ± 0.013 | -0.035 | -0.002 ± 0.023 | 0.003 ± 0.035 | 0.0145 ± 0.019 | -0.0125 ± 0.012 | -0.0155 ± 0.033 | -0.0245 ± 0.047 | -0.019 ± 0.05 | -0.0245 ± 0.015 | -0.107 ± 0.018 | -0.0025 ± 0.015 | -0.0195 ± 0.0064 | -0.002 | 0.02 ± 0.0071 | -0.0245 ± 0.019 | -0.0005 ± 0.0021 | 0.003 ± 0.0057 | 0.008 ± 0.023
9 | BE3C:IL-1alpha | 0.0045 ± 0.022 | 0.007 ± 0.0014 | 0.0115 ± 0.005 | 0.004 ± 0.037 | -0.0145 ± 0.011 | -0.013 ± 0.013 | -0.017 ± 0.0057 | -0.009 ± 0.0014 | -0.009 ± 0.0085 | -0.0095 ± 0.021 | -0.005 ± 0.0099 | -0.0005 ± 0.0078 | -0.0085 ± 0.0035 | 0.012 ± 0.0071 | -0.0155 ± 0.005 | -0.041 ± 0.021 | -0.093 ± 0.0071 | 0.0345 ± 0.042 | -0.0045 ± 0.0035 | 0.023 ± 0.017 | -0.0765 ± 0.026 | 0.0185 ± 0.011 | -0.009 ± 0.0014 | -0.012 ± 0.0085 | -0.0195 ± 0.013
10 | HDF3CGF:EGFR | -0.009 ± 0.0042 | -0.023 ± 0.042 | -0.0155 ± 0.018 | -0.071 ± 0.037 | -0.03 ± 0.044 | -0.0545 ± 0.012 | -0.0695 ± 0.0078 | -0.0415 ± 0.0064 | -0.039 ± 0.044 | -0.0455 ± 0.022 | -0.0535 ± 0.025 | -0.0305 ± 0.029 | -0.0235 ± 0.04 | -0.0345 ± 0.14 | -0.024 ± 0.083 | -0.029 ± 0.057 | -0.146 ± 0.038 | 0.01 ± 0.051 | -0.0525 ± 0.063 | -0.135 ± 0.099 | -0.2 ± 0.054 | -0.044 ± 0.0099 | 0.0265 ± 0.0078 | -0.032 ± 0.016 | -0.089 ± 0.2

2 entries from above in a different format:
Row	Test System	level (log10) ([1]; 740 nM)	level (log10) ([1]; 2200 nM)	level (log10) [2]	level (log10) (Nonafluoropentanamide)	level (log10) ([3]; 740 nM)	level (log10) ([3]; 2200 nM)	level (log10) ([3]; 6700 nM)	level (log10) ([3]; 20000 nM)	level (log10) ([4]; 2200 nM)	level (log10) ([4]; 6700 nM)	level (log10) ([4]; 20000 nM)	level (log10) ([4]; 60000 nM)	level (log10) [5]	level (log10) (Octafluoroadipamide)	level (log10) (Perfluoropinacol; 2200 nM)	level (log10) (Perfluoropinacol; 6700 nM)	level (log10) (Perfluoropinacol; 20000 nM)	level (log10) (Tetrafluorosuccinic acid)	level (log10) ([6]; 2200 nM)	level (log10) ([6]; 6700 nM)	level (log10) ([6]; 20000 nM)	level (log10) [7]	level (log10) [8]	level (log10) [9]	level (log10) [10]
3	SAg:CD62E/E-Selectin	0.0055 ± 0.025	-0.012 ± 0.016	-0.001 ± 0.033	0.0165 ± 0.016	-0.0525 ± 0.073	-0.008 ± 0.044	0.0215 ± 0.011	0.007 ± 0.014	-0.0015 ± 0.023	-0.008 ± 0.0057	-0.007 ± 0.013	0.038 ± 0.013	0.014 ± 0.018	0.0125 ± 0.049	0.0145 ± 0.018	0.008 ± 0.0071	-0.15 ± 0.0021	-0.018 ± 0.013	-0.007 ± 0.011	-0.017 ± 0.0042	0.017 ± 0.014	-0.0095 ± 0.0064	0.017 ± 0.061	0.0035 ± 0.005	0.0285 ± 0.012
4	BF4T:uPA	0.0105 ± 0.0092	-0.009 ± 0.0042	0.0095 ± 0.023	-0.013 ± 0.0042	-0.009 ± 0.0028	-0.0425 ± 0.032	-0.0295 ± 0.0064	-0.063 ± 0.0014	0.009 ± 0.028	0.0085 ± 0.019	-0.013 ± 0.0028	-0.001 ± 0.018	-0.0015 ± 0.026	-0.0275 ± 0.0078	-0.0125 ± 0.0078	-0.0305 ± 0.019	-0.0365 ± 0.0064	0.003	-0.006 ± 0.011	-0.0045 ± 0.012	-0.01 ± 0.0071	-0.012 ± 0.031	-0.0065 ± 0.0092	-0.022 ± 0.024	0.008 ± 0.013

From the supplement of paper PMC10331698
